Measured values as given in the supplement of paper PMC7238544.
Where a name gives a salt, the structure may show the parent alone. ± gives the standard deviation of the averaged measurements. Some of the results follow. The data scatter; read single values as rough.

Legend:
hAMSC donor 1 [1] = assay: transgenic luciferase activity (RLU/mg protein) fold change vs vehicle control (ratio); higher = more transgene expression
hAMSC donor 2 [2] = assay: as above
hAMSC donor 2 [3] = assay: transfection efficiency (EGFP+ cells / Hoechst count) fold change vs vehicle control (ratio); higher = enhanced transfection
hAMSC donor 1 [4] = assay: Hoechst total cell count ratio vs vehicle control; higher = more cells (less toxicity)
hAMSC donor 2 [5] = assay: as above
hAMSC donor 1 [6] = assay: transfection efficiency (EGFP+ cells / Hoechst count) fold change vs vehicle control (ratio); hAMSC are human adipose-derived mesenchymal stem cells given an EGFP-luciferase plasmid by lipofection; higher = enhanced transfection
[7] = priming compound concentration 0.2 µM
[8] = priming compound concentration 1.7 µM
[9] = priming compound concentration 13 µM

Row | Compound | transgenic luciferase activity (hAMSC donor 1 [1]; [7]) | transgenic luciferase activity (hAMSC donor 1 [1]; [8]) | transgenic luciferase activity (hAMSC donor 1 [1]; [9]) | transgenic luciferase activity (hAMSC donor 2 [2]; [7]) | transgenic luciferase activity (hAMSC donor 2 [2]; [8]) | transgenic luciferase activity (hAMSC donor 2 [2]; [9]) | transfection efficiency (hAMSC donor 2 [3]; [7]) | transfection efficiency (hAMSC donor 2 [3]; [8]) | transfection efficiency (hAMSC donor 2 [3]; [9]) | Hoechst total cell count ratio (hAMSC donor 1 [4]; [7]) | Hoechst total cell count ratio (hAMSC donor 1 [4]; [8]) | Hoechst total cell count ratio (hAMSC donor 1 [4]; [9]) | Hoechst total cell count ratio (hAMSC donor 2 [5]; [7]) | Hoechst total cell count ratio (hAMSC donor 2 [5]; [8]) | Hoechst total cell count ratio (hAMSC donor 2 [5]; [9]) | transfection efficiency (hAMSC donor 1 [6]; [7]) | transfection efficiency (hAMSC donor 1 [6]; [8]) | transfection efficiency (hAMSC donor 1 [6]; [9])
1 | O=C(CCCN1CCC(O)(c2ccc(Cl)cc2)CC1)c1ccc(F)cc1 [Haloperidol hydrochloride] | 1.24 ± 0.78 | 2.1 ± 0.63 | 2.06 ± 0.2 | 0.962 ± 0.067 | 0.91 ± 0.24 | 0.899 ± 0.26 | 0.856 ± 0.14 | 0.767 ± 0.14 | 0.57 ± 0.093 | – | – | – | – | – | – | – | – | –
2 | c1ccc2c(c1)CCCC2C1=NCCN1 (stereo not drawn) [Tetrahydrozoline hydrochloride] | 0.648 ± 0.26 | 0.716 ± 0.087 | 0.556 ± 0.027 | – | – | 1.06 ± 0.22 | 1.18 ± 0.41 | 1.19 ± 0.25 | 1.27 ± 0.27 | 1.45 ± 0.17 | 1.21 ± 0.041 | 1.17 ± 0.057 | 1.17 ± 0.44 | 0.912 ± 0.041 | 1.21 ± 0.087 | 0.867 ± 0.16 | 0.903 ± 0.13 | 0.909 ± 0.21
3 | CCN(CC)CC1CCCCN1CC(=O)N1c2ccccc2C(=O)Nc2cccnc21 (stereo not drawn) [Otenzepad] | 0.892 ± 0.44 | 1.06 ± 0.26 | 0.183 ± 0.13 | 0.414 ± 0.31 | 0.997 ± 0.055 | 1.02 ± 0.21 | 0.895 ± 0.11 | 1.06 ± 0.076 | 0.913 ± 0.044 | 1.25 ± 0.26 | 1.39 ± 0.14 | 1.11 ± 0.092 | 1.44 ± 0.34 | 0.756 ± 0.01 | 1.04 ± 0.11 | 0.935 ± 0.13 | 0.975 ± 0.17 | 1.03 ± 0.16
4 | CCCc1cc(=O)[nH]c(=S)[nH]1 [Propylthiouracil] | 0.635 ± 0.081 | 1.98 ± 1.2 | 0.329 ± 0.11 | – | – | 1.19 ± 0.14 | 1.7 ± 0.36 | 1.29 ± 0.084 | 1.42 ± 0.53 | 1.08 ± 0.062 | 1.05 ± 0.16 | 1.12 ± 0.12 | 0.826 ± 0.086 | 0.87 ± 0.16 | 1.21 ± 0.18 | 1.16 ± 0.16 | 1.12 ± 0.14 | 0.821 ± 0.043
5 | COc1ccccc1OCCNCC(O)COc1cccc2[nH]c3ccccc3c12 (stereo not drawn) [Carvedilol] | 1.21 ± 0.73 | 0.828 ± 0.19 | 1.27 ± 0.46 | 0.777 ± 0.35 | 1.14 ± 0.3 | 2.32 ± 0.63 | 1.43 ± 0.32 | 1.26 ± 0.14 | 1.04 ± 0.041 | 1.18 ± 0.056 | 1.29 ± 0.19 | 1.23 ± 0.058 | 0.915 ± 0.31 | 0.847 ± 0.088 | 1.36 ± 0.049 | 1.05 ± 0.34 | 1.32 ± 0.48 | 0.99 ± 0.45
6 | OCc1cc(C(O)CNCCCCCCOCCCCc2ccccc2)ccc1O (stereo not drawn) [Salmeterol] | 0.687 ± 0.4 | 0.641 ± 0.41 | 0.478 ± 0.088 | – | – | 1.11 ± 0.23 | 1.02 ± 0.26 | 1.5 ± 0.13 | 0.956 ± 0.13 | 1.2 ± 0.21 | 1.15 ± 0.044 | 1.28 ± 0.12 | 1.23 ± 0.31 | 0.829 ± 0.046 | 1.44 ± 0.066 | 1.13 ± 0.035 | 0.857 ± 0.19 | 0.631 ± 0.13
7 | CCC1(c2ccccc2)C(=O)NCNC1=O [Primidone] | – | 0.33 ± 0.14 | 0.817 ± 0.3 | 0.935 ± 0.26 | 0.761 ± 0.071 | 0.616 ± 0.2 | 1.09 ± 0.071 | 1.12 ± 0.11 | 1.04 ± 0.27 | 1.16 ± 0.069 | 1.25 ± 0.02 | 1.36 ± 0.065 | 1.1 ± 0.24 | 1.16 ± 0.077 | 1.24 ± 0.21 | 0.975 ± 0.17 | 1.15 ± 0.53 | 0.834 ± 0.12
8 | CC(C)[N+](C)(CCOC(=O)C1c2ccccc2Oc2ccccc21)C(C)C [Propantheline bromide] | 0.533 ± 0.2 | 0.318 ± 0.045 | 0.833 ± 0.72 | – | – | 0.951 ± 0.16 | 1.21 ± 0.35 | 1.12 ± 0.021 | 1.49 ± 0.055 | 1.24 ± 0.21 | 1.18 ± 0.041 | 1 ± 0.17 | 0.977 ± 0.27 | 0.975 ± 0.21 | 1.13 ± 0.12 | 0.965 ± 0.14 | 0.987 ± 0.057 | 1.09 ± 0.13
9 | O=C1c2c(O)ccc(O)c2C(=O)c2c(NCCNCCO)ccc(NCCNCCO)c21 [Mitoxantrone hydrochloride] | 0.89 ± 0.21 | 3.89 ± 1.6 | – | 2.13 ± 0.8 | 0.743 ± 0.37 | 0.000366 ± 2.3e-05 | 2.51 ± 0.23 | 2.71 ± 0.19 | 0.111 ± 0.19 | 0.921 ± 0.033 | 0.476 ± 0.013 | 0.16 ± 0.064 | 0.43 ± 0.007 | 0.275 ± 0.043 | 0.053 ± 0.0076 | 1.36 ± 0.33 | 1.3 ± 0.21 | 0.168 ± 0.13
10 | CN(Cc1cnc2nc(N)nc(N)c2n1)c1ccc(C(=O)N[C@@H](CCC(=O)O)C(=O)O)cc1 [Methotrexate trihydrate] | 0.483 ± 0.12 | 2.24 ± 0.51 | – | 1.11 ± 0.51 | 0.774 ± 0.045 | 0.907 ± 0.35 | 1.59 ± 0.47 | 1.1 ± 0.027 | 1.26 ± 0.033 | 1.43 ± 0.088 | 1.22 ± 0.14 | 1.31 ± 0.23 | 0.969 ± 0.12 | 1.07 ± 0.15 | 1.01 ± 0.18 | 0.804 ± 0.18 | 1.04 ± 0.37 | 1.18 ± 0.14
11 | CCN(Cc1ccncc1)C(=O)C(CO)c1ccccc1 (stereo not drawn) [Tropicamide] | – | 1.05 ± 1.2 | 0.55 ± 0.025 | 0.782 ± 0.07 | 0.493 ± 0.019 | 0.407 ± 0.056 | 1.03 ± 0.12 | 1.06 ± 0.045 | 0.843 ± 0.18 | 1.23 ± 0.23 | 0.977 ± 0.17 | 1.36 ± 0.25 | 1.16 ± 0.088 | 1.244 ± 0.01 | 1.41 ± 0.09 | 0.744 ± 0.34 | 1.58 ± 0.85 | 0.977 ± 0.077
12 | C[C@]12CCC(=O)C=C1CC[C@@H]1[C@@H]2C(=O)C[C@@]2(C)[C@H]1CC[C@]2(O)C(=O)CO [Cortisone] | 0.785 ± 0.26 | 2.21 ± 0.49 | – | 1.47 ± 0.41 | 0.829 ± 0.18 | 0.702 ± 0.19 | 1.31 ± 0.087 | 1.17 ± 0.16 | 1.03 ± 0.14 | 1.06 ± 0.091 | 1.37 ± 0.11 | 1.31 ± 0.12 | 1.13 ± 0.037 | 1.15 ± 0.12 | 0.982 ± 0.084 | 1.39 ± 0.06 | 0.986 ± 0.27 | 1.1 ± 0.12
13 | CC(C)C[C@@H](NC(=O)OCC1c2ccccc2-c2ccccc21)C(=O)O [N-Fmoc-D-leucine] | – | 0.658 ± 0.72 | 0.756 ± 0.3 | 0.588 ± 0.12 | 0.713 ± 0.031 | 0.49 ± 0.029 | 1.02 ± 0.082 | 1.17 ± 0.087 | 0.809 ± 0.083 | 1.19 ± 0.1 | 1.19 ± 0.088 | 1.25 ± 0.07 | 1.48 ± 0.24 | 1.16 ± 0.15 | 1.29 ± 0.19 | 0.961 ± 0.18 | 1.6 ± 0.48 | 0.931 ± 0.14
14 | CC1=C(/C=C/C(C)=C/C=C/C(C)=C\C(=O)O)C(C)(C)CCC1 [Isotretinoin] | 0.802 ± 0.14 | 0.709 ± 0.48 | – | 0.596 ± 0.1 | 0.922 ± 0.077 | 0.572 ± 0.065 | 1.32 ± 0.35 | 0.9743 ± 0.0051 | 0.977 ± 0.071 | 1.12 ± 0.07 | 1.06 ± 0.17 | 1.14 ± 0.17 | 1.32 ± 0.097 | 1.26 ± 0.12 | 0.753 ± 0.16 | 1.18 ± 0.44 | 0.884 ± 0.21 | 0.698 ± 0.067

One compound at a time, from the list above. Values in the order: transgenic luciferase activity (hAMSC donor 1 [1]; [7])	transgenic luciferase activity (hAMSC donor 1 [1]; [8])	transgenic luciferase activity (hAMSC donor 1 [1]; [9])	transgenic luciferase activity (hAMSC donor 2 [2]; [7])	transgenic luciferase activity (hAMSC donor 2 [2]; [8])	transgenic luciferase activity (hAMSC donor 2 [2]; [9])	transfection efficiency (hAMSC donor 2 [3]; [7])	transfection efficiency (hAMSC donor 2 [3]; [8])	transfection efficiency (hAMSC donor 2 [3]; [9])	Hoechst total cell count ratio (hAMSC donor 1 [4]; [7])	Hoechst total cell count ratio (hAMSC donor 1 [4]; [8])	Hoechst total cell count ratio (hAMSC donor 1 [4]; [9])	Hoechst total cell count ratio (hAMSC donor 2 [5]; [7])	Hoechst total cell count ratio (hAMSC donor 2 [5]; [8])	Hoechst total cell count ratio (hAMSC donor 2 [5]; [9])	transfection efficiency (hAMSC donor 1 [6]; [7])	transfection efficiency (hAMSC donor 1 [6]; [8])	transfection efficiency (hAMSC donor 1 [6]; [9])
CCN(Cc1ccncc1)C(=O)C(CO)c1ccccc1 (stereo not drawn) [Tropicamide] as listed: –	1.05 ± 1.2	0.55 ± 0.025	0.782 ± 0.07	0.493 ± 0.019	0.407 ± 0.056	1.03 ± 0.12	1.06 ± 0.045	0.843 ± 0.18	1.23 ± 0.23	0.977 ± 0.17	1.36 ± 0.25	1.16 ± 0.088	1.244 ± 0.01	1.41 ± 0.09	0.744 ± 0.34	1.58 ± 0.85	0.977 ± 0.077
OCc1cc(C(O)CNCCCCCCOCCCCc2ccccc2)ccc1O (stereo not drawn) [Salmeterol] as listed: 0.687 ± 0.4	0.641 ± 0.41	0.478 ± 0.088	–	–	1.11 ± 0.23	1.02 ± 0.26	1.5 ± 0.13	0.956 ± 0.13	1.2 ± 0.21	1.15 ± 0.044	1.28 ± 0.12	1.23 ± 0.31	0.829 ± 0.046	1.44 ± 0.066	1.13 ± 0.035	0.857 ± 0.19	0.631 ± 0.13
